Assay results published in patent EP0638588A1 (TAKEDA CHEMICAL INDUSTRIES, LTD., priority 1993, dated 1995).

Experiment: general procedure: solution-phase peptide synthesis; WSC/HOBT; DIC/HONB; DEPC
Conditions: sodium salts (compounds 15-18)

Substance | step yield (coupling step) | step yield (late stage modification step)
(2R,6R)-2-(Boc-Gly-amino)-6,7-bis(PamO)-4-THT-Glu(O^tBu)-Gly-D-Glu(O^tBu)-O^tBu | yield 80% | 
(2R,6R)-2-(Boc-β-Ala-amino)-6,7-bis(PamO)-4-THT-Gly-Gly-Gly-Glu(O^tBu)-O^tBu | yield 50% | 
(2R,6R)-2-(Fmoc-Glu(O^tBu)-amino)-6,7-bis(PamO)-4-THT-Glu(O^tBu)-Gly-D-Glu(O^tBu)-O^tBu | yield 89% | 
(2R,6R)-2-(H-Glu(O^tBu)-amino)-6,7-bis(PamO)-4-THT-Glu(O^tBu)-Gly-D-Glu(O^tBu)-O^tBu |  | yield 76%
(2R,6R)-2-(H-Glu-amino)-6,7-bis(PamO)-4-THT-Glu-Gly-D-Glu-OH |  | yield 97%
(2R,6R)-2-(H-β-Ala-amino)-6,7-bis(PamO)-4-THT-Gly-Gly-Gly-Glu-OH |  | yield 100%
(2R,6R)-2-Fmoc-amino-6,7-bis(PamO)-4-THT-Gly-Gly-Gly-Glu(O^tBu)-O^tBu | yield 86% | 
(2R,6R)-2-amino-6,7-bis(PamO)-4-THT-Gly-Gly-Gly-Glu(O^tBu)-O^tBu |  | yield 94%
Cbz-GGGE(OtBu)-OtBu | yield 55% | 

* marks the point of attachment. Cbz = O=C(OCc1ccccc1)*; OtBu = CC(C)(C)O*
